PubChem BioAssay AID1259405 | NCATS – 2018

Purpose: 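Mouse-designed siRNAs used to find CHO productivity engineering targets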 (primary screen)
Cell system: Chinese hamster CHO-K1 ovary cells with stable secreted eGFP expression
Reagents: single siRNA against mouse genes, 0.8 pmol siRNA per well (2 µl of 400 nM stock)
Time to read-out: 3 days
Read-out: 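Per-well intracellular GFP measured by laser scanning cytometry, plus viability from ATP luminescence, each relative to plate median of non-targeting control wells, in %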
Direction: GFP, % of control: higher = more GFP per well, higher productivity; viability (ATP), % of control: higher = more viable cells (more ATP)
Active means: 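a knock-down is called active if GFP reaches 120% or more of non-targeting control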
The whole screen tested about 50,000 reagents; this is an unselected part. Of all reagents, about 4,000 (8%) got an active call. 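Mouse siRNA library applied to hamster cells; one well for each siRNA.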 The numbers tell different reagents against one gene apart.

| GFP, % of control | viability (ATP), % of control | activity call | target gene | siRNA no. |
| --- | --- | --- | --- | --- |
| 59 | 53.5 | inactive | Aen (GeneID 68048) | 1 |
| 100 | 102 | inactive | Aen (GeneID 68048) | 2 |
| 64.4 | 58.2 | inactive | Aen (GeneID 68048) | 3 |
| 108 | 85.7 | inactive | Rbpjl (GeneID 19668) | 1 |
| 96.6 | 96.7 | inactive | Rbpjl (GeneID 19668) | 2 |
| 97.7 | 85.2 | inactive | Igsf3 (GeneID 78908) | 1 |
| 52.7 | 58.2 | inactive | Igsf3 (GeneID 78908) | 2 |
| 89 | 92.6 | inactive | Igsf3 (GeneID 78908) | 3 |
| 48.2 | 47 | inactive | Il12b (GeneID 16160) | 1 |
| 55.9 | 51.5 | inactive | Il12b (GeneID 16160) | 2 |
| 83.6 | 83.4 | inactive | Il12b (GeneID 16160) | 3 |
| 95.2 | 109 | inactive | Ppie (GeneID 56031) | 1 |
| 43.6 | 50.5 | inactive | Ppie (GeneID 56031) | 2 |
| 18.7 | 31.7 | inactive | Ppie (GeneID 56031) | 3 |
| 54.1 | 34.5 | inactive | Ube2k (GeneID 53323) | 1 |
| 86.3 | 81.3 | inactive | Ube2k (GeneID 53323) | 2 |
| 79.9 | 102 | inactive | Ube2k (GeneID 53323) | 3 |
| 18.9 | 11.9 | inactive | Dis3l (GeneID 213550) | 1 |
| 83.3 | 91.4 | inactive | Dis3l (GeneID 213550) | 2 |
| 61.3 | 55.9 | inactive | Dis3l (GeneID 213550) | 3 |
| 98.4 | 70.2 | inactive | Klrk1 (GeneID 27007) | 1 |
| 58.5 | 70.9 | inactive | Klrk1 (GeneID 27007) | 2 |
| 57 | 34.7 | inactive | Klrk1 (GeneID 27007) | 3 |
| 116 | 119 | inactive | Tmem45a (GeneID 56277) | 1 |
| 91 | 60.8 | inactive | Tmem45a (GeneID 56277) | 2 |
| 109 | 158 | inactive | Tmem45a (GeneID 56277) | 3 |
| 64.7 | 68.3 | inactive | Nckap1l (GeneID 105855) | 1 |
| 68 | 82.6 | inactive | Nckap1l (GeneID 105855) | 2 |
| 118 | 98.8 | inactive | Nckap1l (GeneID 105855) | 3 |
| 105 | 86.4 | inactive | Prrc1 (GeneID 73137) | 1 |
| 95 | 67.2 | inactive | Prrc1 (GeneID 73137) | 2 |
| 104 | 66.7 | inactive | Prrc1 (GeneID 73137) | 3 |
| 89.8 | 58.6 | inactive | Gpr137b (GeneID 83924) | 1 |
| 104 | 89.2 | inactive | Gpr137b (GeneID 83924) | 2 |
| 92.7 | 54.2 | inactive | Gpr137b (GeneID 83924) | 3 |
| 72.7 | 85.2 | inactive | Rbl1 (GeneID 19650) | 1 |
| 58.1 | 56.9 | inactive | Rbl1 (GeneID 19650) | 2 |
| 102 | 104 | inactive | Rbl1 (GeneID 19650) | 3 |
| 35.2 | 37.6 | inactive | Mtnr1a (GeneID 17773) | 1 |
| 105 | 91.5 | inactive | Mtnr1a (GeneID 17773) | 2 |
| 64.6 | 55.3 | inactive | Mtnr1a (GeneID 17773) | 3 |
| 74.9 | 67.5 | inactive | Rims4 (GeneID 241770) | 1 |
| 111 | 76.8 | inactive | Rims4 (GeneID 241770) | 2 |
| 55.4 | 54.4 | inactive | Rims4 (GeneID 241770) | 3 |
| 108 | 122 | inactive | Alcam (GeneID 11658) | 1 |
| 62.7 | 60.6 | inactive | Alcam (GeneID 11658) | 2 |
| 64 | 86 | inactive | Alcam (GeneID 11658) | 3 |
| 82.3 | 87.1 | inactive | Ints12 (GeneID 71793) | 1 |
| 36.1 | 49.2 | inactive | Ints12 (GeneID 71793) | 2 |
| 102 | 107 | inactive | Ints12 (GeneID 71793) | 3 |
| 90.8 | 110 | inactive | Arhgef11 (GeneID 213498) | 1 |
| 98.3 | 156 | inactive | Arhgef11 (GeneID 213498) | 2 |
| 95.6 | 96.1 | inactive | Arhgef11 (GeneID 213498) | 3 |
| 19 | 15.8 | inactive | Or10al7 (GeneID 258324) | 1 |
| 64.3 | 56.2 | inactive | Or10al7 (GeneID 258324) | 2 |
| 27.6 | 47.3 | inactive | Or10al7 (GeneID 258324) | 3 |
| 137 | 71.6 | active | Ppp1r8 (GeneID 100336) | 1 |
| 116 | 105 | inactive | Ppp1r8 (GeneID 100336) | 2 |
| 108 | 76.4 | inactive | Ppp1r8 (GeneID 100336) | 3 |
| 55.1 | 89 | inactive | Desi1 (GeneID 28075) | 1 |
| 90.8 | 86.4 | inactive | Desi1 (GeneID 28075) | 2 |
| 114 | 62.8 | inactive | Desi1 (GeneID 28075) | 3 |
| 93.5 | 54.9 | inactive | Leprot (GeneID 230514) | 1 |
| 102 | 62.6 | inactive | Leprot (GeneID 230514) | 2 |
| 78.4 | 81.4 | inactive | Leprot (GeneID 230514) | 3 |
| 78 | 67 | inactive | Nsfl1c (GeneID 386649) | 1 |
| 78.8 | 86.3 | inactive | Nsfl1c (GeneID 386649) | 2 |
| 76.6 | 87.9 | inactive | Chrna1 (GeneID 11435) | 1 |
| 60.2 | 72.7 | inactive | Chrna1 (GeneID 11435) | 2 |
| 57 | 65.5 | inactive | Chrna1 (GeneID 11435) | 3 |
| 112 | 94.8 | inactive | Gpr45 (GeneID 93690) | 1 |
| 63.1 | 57.9 | inactive | Gpr45 (GeneID 93690) | 2 |
| 79.8 | 77.2 | inactive | Gpr45 (GeneID 93690) | 3 |
| 108 | 138 | inactive | Lpcat2 (GeneID 270084) | 1 |
| 130 | 90 | active | Lpcat2 (GeneID 270084) | 2 |
| 39.7 | 32.3 | inactive | Arhgef12 (GeneID 69632) | 1 |
| 94.8 | 87.1 | inactive | Arhgef12 (GeneID 69632) | 2 |
| 115 | 98.6 | inactive | Arhgef12 (GeneID 69632) | 3 |
| 131 | 92.7 | active | Or52n5 (GeneID 259045) | 1 |
| 118 | 80.8 | inactive | Or52n5 (GeneID 259045) | 2 |
| 64.3 | 93.2 | inactive | Or52n5 (GeneID 259045) | 3 |
| 117 | 120 | inactive | C1galt1 (GeneID 94192) | 1 |
| 60.3 | 118 | inactive | C1galt1 (GeneID 94192) | 2 |
| 74.2 | 84.2 | inactive | C1galt1 (GeneID 94192) | 3 |

In a second layout: entries from further up
Gpr137b (GeneID 83924) #1 | GFP, % of control = 89.8; viability (ATP), % of control = 58.6; activity call = inactive
Gpr137b (GeneID 83924) #2 | GFP, % of control = 104; viability (ATP), % of control = 89.2; activity call = inactive
Gpr137b (GeneID 83924) #3 | GFP, % of control = 92.7; viability (ATP), % of control = 54.2; activity call = inactive
Rbl1 (GeneID 19650) #1 | GFP, % of control = 72.7; viability (ATP), % of control = 85.2; activity call = inactive
Rbl1 (GeneID 19650) #2 | GFP, % of control = 58.1; viability (ATP), % of control = 56.9; activity call = inactive
Rbl1 (GeneID 19650) #3 | GFP, % of control = 102; viability (ATP), % of control = 104; activity call = inactive
